Laboratory results published in US10273251B2, “Composition, cured film, near infrared ray absorption filter, solid-state imaging device, infrared sensor, and compound” (FUJIFILM Corporation, priority 2014, dated 2019).

Experiments:
[1] = Evaluation of transparency in a visible region of filter; details: filter 1.0 μm, 7.5 mass % compound; minimum transmittance at 500 to 600 nm
Experimental: (§1) Compositions below were mixed so as to prepare the composition. A solid content of the composition is 31 mass % and a content of the near infrared ray absorption substance with respect to the total solid content of the composition was 7.5 mass %.
(§2) Glass substrates (1737 manufactured by Corning Incorporated) were coated with respective compositions by using a spin coater such that film thicknesses after drying become 1.0 μm, and a heating treatment (prebaking) was performed for 120 seconds by using a hot plate of 100° C.
(§3) Subsequently, beta exposure was performed by 500 mJ/cm^2 by using an i-ray stepper exposure device FPA-3000i5+ (manufactured by Canon Inc.). Subsequently, puddle development was performed at 23° C. for 60 seconds by using CD-2060 (manufactured by Fujifilm Electronic Materials), a rinse treatment was performed with pure water on a glass substrate on which a beta coloration layer was formed, and spray drying was performed.
(§4) The heating treatment (post baking) was performed for 300 seconds by using a hot plate of 200° C., so as to obtain a near infrared ray absorption filter.
Transmittance of the respective near infrared ray absorption filters at a wavelength of 500 to 600 nm was measured by a spectrophotometer U-4100 (manufactured by Hitachi High-Technologies Corporation). Transparency in a visible region was evaluated with criteria below.

[2] = Near infrared shielding property evaluation of filter; details: filter 1.0 μm, 7.5 mass % compound; transmittance at maximum absorption wavelength
Experimental: as §1, §2, §3, §4
Transmittance of the respective near infrared ray absorption filters at maximum absorption wavelengths was measured by a spectrophotometer U-4100 (manufactured by Hitachi High-Technologies Corporation). Near infrared shielding properties were evaluated with criteria below.

Row | SMILES | Transparency in visible region [1] | Near infrared shielding properties [2]
1 | CCC(C)COc1cccc(-c2c3/c(=C(\C#N)c4cnc5ccccc5n4)n(B(c4ccccc4)c4ccccc4)c(-c4cccc(OCC(C)CC)c4)c3/c(=C(\C#N)c3cnc4ccccc4n3)n2B(c2ccccc2)c2ccccc2)c1 [Compound D-7] | B (90%≤minimum value of transmittance at a wavelength of 500 to 600 nm<95%) | A (transmittance of maximum absorption wavelength≤5%)
2 | CC(CCC(COc1cccc(-c2c3/c(=C(\C#N)c4cnc5cc(Cl)c(Cl)cc5n4)n(B(c4ccccc4)c4ccccc4)c(-c4cccc(OCC(CCC(C)CC(C)(C)C)C(C)CC(C)(C)C)c4)c3/c(=C(\C#N)c3cnc4cc(Cl)c(Cl)cc4n3)n2B(c2ccccc2)c2ccccc2)c1)C(C)CC(C)(C)C)CC(C)(C)C [Compound D-32] | A (95%≤minimum value of transmittance at a wavelength of 500 to 600 nm) | A (transmittance of maximum absorption wavelength≤5%)
3 | CC(CCC(COc1cccc(-c2c3/c(=C(\C#N)c4cnc5ccccc5n4)n(B(c4ccccc4)c4ccccc4)c(-c4cccc(OCC(CCC(C)CC(C)(C)C)C(C)CC(C)(C)C)c4)c3/c(=C(\C#N)c3cnc4ccccc4n3)n2B(c2ccccc2)c2ccccc2)c1)C(C)CC(C)(C)C)CC(C)(C)C [Compound D-28] | A (95%≤minimum value of transmittance at a wavelength of 500 to 600 nm) | A (transmittance of maximum absorption wavelength≤5%)
4 | CCCCCCCCC(CCCCCC)COc1ccc(-c2c3/c(=C(\C#N)c4cnc5cc(Cl)c(Cl)cc5n4)n(B(c4ccccc4)c4ccccc4)c(-c4ccc(OCC(CCCCCC)CCCCCCCC)cc4)c3/c(=C(\C#N)c3cnc4cc(Cl)c(Cl)cc4n3)n2B(c2ccccc2)c2ccccc2)cc1 (stereo not shown) [Compound E-1, reference compound] | C (80%≤minimum value of transmittance at a wavelength of 500 to 600 nm<90%) | A (transmittance of maximum absorption wavelength≤5%)
5 | CCCCCCCC/C=C\CCCCCCCCOc1cccc(-c2c3/c(=C(\C#N)c4cnc5cc(Cl)c(Cl)cc5n4)n(B(c4ccccc4)c4ccccc4)c(-c4cccc(OCCCCCCCC/C=C\CCCCCCCC)c4)c3/c(=C(\C#N)c3cnc4cc(Cl)c(Cl)cc4n3)n2B(c2ccccc2)c2ccccc2)c1 [Compound D-5] | B (90%≤minimum value of transmittance at a wavelength of 500 to 600 nm<95%) | A (transmittance of maximum absorption wavelength≤5%)
6 | CCCCCCCCCCC(CCCCCCCC)COc1cccc(-c2c3/c(=C(\C#N)c4cnc5ccccc5n4)n(B(c4ccccc4)c4ccccc4)c(-c4cccc(OCC(CCCCCCCC)CCCCCCCCCC)c4)c3/c(=C(\C#N)c3cnc4ccccc4n3)n2B(c2ccccc2)c2ccccc2)c1 [Compound D-29] | A (95%≤minimum value of transmittance at a wavelength of 500 to 600 nm) | A (transmittance of maximum absorption wavelength≤5%)
7 | COc1ccc2oc(/C(C#N)=c3/c4c(-c5cccc(OCC(CCC(C)CC(C)(C)C)C(C)CC(C)(C)C)c5)n(B(c5ccccc5)c5ccccc5)/c(=C(/C#N)c5nc6cc(C)ccc6o5)c4c(-c4cccc(OCC(CCC(C)CC(C)(C)C)C(C)CC(C)(C)C)c4)n3B(c3ccccc3)c3ccccc3)nc2c1 [Compound D-43] | A (95%≤minimum value of transmittance at a wavelength of 500 to 600 nm) | A (transmittance of maximum absorption wavelength≤5%)
8 | COCCOCCOc1cccc(-c2c3/c(=C(\C#N)c4cnc5cc(Cl)c(Cl)cc5n4)n(B(c4ccccc4)c4ccccc4)c(-c4cccc(OCCOCCOC)c4)c3/c(=C(\C#N)c3cnc4cc(Cl)c(Cl)cc4n3)n2B(c2ccccc2)c2ccccc2)c1 [Compound D-4] | B (90%≤minimum value of transmittance at a wavelength of 500 to 600 nm<95%) | A (transmittance of maximum absorption wavelength≤5%)
9 | CCCCCCCCCCC(CCCCCCCC)COc1cccc(-c2c3/c(=C(\C#N)c4cnc5cc(Cl)c(Cl)cc5n4)n(B(c4ccccc4)c4ccccc4)c(-c4cccc(OCC(CCCCCCCC)CCCCCCCCCC)c4)c3/c(=C(\C#N)c3cnc4cc(Cl)c(Cl)cc4n3)n2B(c2ccccc2)c2ccccc2)c1 [Compound D-31] | A (95%≤minimum value of transmittance at a wavelength of 500 to 600 nm) | A (transmittance of maximum absorption wavelength≤5%)
10 | CCCCCCCCC(CCCCCC)COc1cccc(-c2c3/c(=C(\C#N)c4cnc5cc(Cl)c(Cl)cc5n4)n(B(c4ccccc4)c4ccccc4)c(-c4cccc(OCC(CCCCCC)CCCCCCCC)c4)c3/c(=C(\C#N)c3cnc4cc(Cl)c(Cl)cc4n3)n2B(c2ccccc2)c2ccccc2)c1 [Compound D-1] | A (95%≤minimum value of transmittance at a wavelength of 500 to 600 nm) | A (transmittance of maximum absorption wavelength≤5%)
11 | Cc1cc2ncc(/C(C#N)=c3/c4c(-c5cccc(OCC(CCC(C)CC(C)(C)C)C(C)CC(C)(C)C)c5)n(B(c5ccccc5)c5ccccc5)/c(=C(/C#N)c5cnc6cc(C)c(C)cc6n5)c4c(-c4cccc(OCC(CCC(C)CC(C)(C)C)C(C)CC(C)(C)C)c4)n3B(c3ccccc3)c3ccccc3)nc2cc1C [Compound D-6] | A (95%≤minimum value of transmittance at a wavelength of 500 to 600 nm) | A (transmittance of maximum absorption wavelength≤5%)
12 | CCCCC(CC)COc1cccc(-c2c3/c(=C(\C#N)c4ccc5ccccc5n4)n(B(c4ccccc4)c4ccccc4)c(-c4cccc(OCC(CC)CCCC)c4)c3/c(=C(\C#N)c3ccc4ccccc4n3)n2B(c2ccccc2)c2ccccc2)c1 [Compound D-10] | A (95%≤minimum value of transmittance at a wavelength of 500 to 600 nm) | A (transmittance of maximum absorption wavelength≤5%)
13 | CCCCCCCCC(CCCCCCCC)COc1cccc(-c2c3/c(=C(\C#N)c4cnc5cc(C)ccc5n4)n(B(c4ccccc4)c4ccccc4)c(-c4cccc(OCC(CCCCCCCC)CCCCCCCC)c4)c3/c(=C(\C#N)c3cnc4cc(C)ccc4n3)n2B(c2ccccc2)c2ccccc2)c1 [Compound D-8] | A (95%≤minimum value of transmittance at a wavelength of 500 to 600 nm) | A (transmittance of maximum absorption wavelength≤5%)
14 | CCCCCCCCCCCCCCCCCCOc1cccc(-c2c3/c(=C(\C#N)c4nc5ccccc5s4)n(B(c4ccccc4)c4ccccc4)c(-c4cccc(OCCCCCCCCCCCCCCCCCC)c4)c3/c(=C(\C#N)c3nc4ccccc4s3)n2B(c2ccccc2)c2ccccc2)c1 [Compound D-11] | B (90%≤minimum value of transmittance at a wavelength of 500 to 600 nm<95%) | A (transmittance of maximum absorption wavelength≤5%)
